In the supplement of paper PMC10849652:
This is one part of the list.

Amino acid sequences for entries named in this document (tags omitted). A change or cut given only in a name is not applied to a line headed by its entry.
UniProt Q9H0U9: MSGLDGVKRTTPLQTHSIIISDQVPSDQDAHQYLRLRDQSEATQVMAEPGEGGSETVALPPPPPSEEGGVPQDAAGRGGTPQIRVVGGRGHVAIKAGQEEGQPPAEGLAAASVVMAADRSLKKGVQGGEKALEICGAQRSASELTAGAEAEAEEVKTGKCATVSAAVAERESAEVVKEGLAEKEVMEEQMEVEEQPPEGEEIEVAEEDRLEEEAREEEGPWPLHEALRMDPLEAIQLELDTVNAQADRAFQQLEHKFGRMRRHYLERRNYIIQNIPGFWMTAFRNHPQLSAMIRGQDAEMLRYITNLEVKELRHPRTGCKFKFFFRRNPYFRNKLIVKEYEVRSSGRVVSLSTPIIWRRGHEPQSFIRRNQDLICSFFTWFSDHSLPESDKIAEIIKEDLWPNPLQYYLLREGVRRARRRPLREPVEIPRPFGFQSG
UniProt Q7Z2T5: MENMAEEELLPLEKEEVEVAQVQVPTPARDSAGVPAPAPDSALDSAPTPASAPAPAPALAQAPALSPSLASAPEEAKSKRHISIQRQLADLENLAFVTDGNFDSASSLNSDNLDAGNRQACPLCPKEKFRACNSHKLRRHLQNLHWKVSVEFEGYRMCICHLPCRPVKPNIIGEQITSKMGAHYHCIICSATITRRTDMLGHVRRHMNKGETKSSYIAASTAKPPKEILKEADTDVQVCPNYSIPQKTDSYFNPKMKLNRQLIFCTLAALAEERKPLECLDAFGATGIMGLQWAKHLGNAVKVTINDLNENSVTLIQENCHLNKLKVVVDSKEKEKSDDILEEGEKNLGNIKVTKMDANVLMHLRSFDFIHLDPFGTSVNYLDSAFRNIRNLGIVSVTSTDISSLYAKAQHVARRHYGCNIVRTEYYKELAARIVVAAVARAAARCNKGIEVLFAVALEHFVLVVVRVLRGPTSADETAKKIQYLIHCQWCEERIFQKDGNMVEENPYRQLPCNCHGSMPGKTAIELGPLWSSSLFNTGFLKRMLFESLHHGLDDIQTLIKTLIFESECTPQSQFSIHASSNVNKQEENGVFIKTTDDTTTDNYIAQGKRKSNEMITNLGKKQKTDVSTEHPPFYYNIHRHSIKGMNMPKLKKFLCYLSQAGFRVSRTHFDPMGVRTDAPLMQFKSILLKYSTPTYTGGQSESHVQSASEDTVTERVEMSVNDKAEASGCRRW
UniProt O75865, whole entry, looked up: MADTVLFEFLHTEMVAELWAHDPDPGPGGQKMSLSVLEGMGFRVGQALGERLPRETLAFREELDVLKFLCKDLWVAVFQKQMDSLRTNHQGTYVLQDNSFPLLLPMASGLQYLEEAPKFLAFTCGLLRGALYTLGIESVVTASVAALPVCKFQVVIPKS

What was measured:
Assay in all cases: log2 fold change, soluble protein after heating vs DMSO (PISA); higher = thermal stabilisation; K562 lysate, 10 uM; active = over 0.2 and 3.5 SD of the protein, either way, in both replicates (recomputed)
[1] = compound: CS(=O)(=O)CCNCc1ccc(-c2ccc3ncnc(Nc4ccc(OCc5cccc(F)c5)c(Cl)c4)c3c2)o1 [lapatinib]
How it was run: (§1)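 Following dounce homogenisation of K562 pellets in PBS pH 7.4 with 1 mM MgCl2, crude extract at 1 mg/mL protein was incubated for 30 min with 10 μM compound. Aliquots were then heated for 3 min over 48°C-58°C and pooled, NP-40 was added to 0.5% at 4°C, and soluble protein was recovered as the supernatant at 21,000xg for 90 min. Channel-sum-equalised TMTpro 16plex LC-MS/MS quantified this protein. Each value, from duplicates, is a log-two fold change in thermal stability relative to solvent controls.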

[2] = compound: CS(=O)(=O)N1CCN(Cc2cc3nc(-c4cccc5[nH]ncc45)nc(N4CCOCC4)c3s2)CC1 [pictilisib]
How it was run: as §1

[3] = compound: C[C@@H](Oc1cc(-c2cnn(C3CCNCC3)c2)cnc1N)c1c(Cl)ccc(F)c1Cl [crizotinib]
How it was run: as §1

[4] = compound: C[C@H](C1=CC=C(C=C1)C(=O)NC2=C3C=CNC3=NC=C2)N
How it was run: as §1

[5] = compound: C[C@H](Nc1ncnc2nc[nH]c12)c1cc2cccc(Cl)c2c(=O)n1-c1ccccc1 [duvelisib]
How it was run: as §1

[6] = compound: Cc1cc(Nc2cc(CN3CCOCC3)c3nc(C)c(Cc4ccc(Cl)cc4F)n3n2)n[nH]1 [gandotinib]
How it was run: as §1

[7] = compound: Cc1ccc(-n2nc(C(C)(C)C)cc2NC(=O)Nc2ccc(OCCN3CCOCC3)c3ccccc23)cc1 [doramapimod]
How it was run: as §1

[8] = compound: Cc1ccc(NC(=O)c2ccc(CN3CC[C@H](N(C)C)C3)c(C(F)(F)F)c2)cc1Nc1nccc(-c2cncnc2)n1 [bafetinib]
How it was run: as §1

[9] = compound: Cc1cccc(CC(=O)N2CCc3c2ccc(-c2cn(C)c4ncnc(N)c24)c3F)n1
How it was run: as §1

[10] = compound: Cc1cc(Nc2cc(N3CCN(C)CC3)nc(Sc3ccc(NC(=O)C4CC4)cc3)n2)n[nH]1 [tozasertib]
How it was run: as §1

Measured: log2 fold change

TSPYL1 (UniProt Q9H0U9)
inactive: [1] -0.078 | [2] -0.032 | [3] -0.054 | [4] -0.179 | [5] 0.059 | [6] 0.044 | [7] 0.054 | [8] 0.133 | [9] 0.027

TRMT1L (UniProt Q7Z2T5)
inactive: [1] -0.003 | [2] 0.021 | [3] -0.046 | [4] -0.053 | [5] 0.03 | [6] 0 | [10] -0.017 | [7] 0.006 | [8] 0.016 | [9] 0.08

TRAPPC6A isoform 2 (UniProt O75865)
inactive: [1] 0.02 | [2] 0.015 | [3] 0.001 | [4] -0.146 | [5] -0.006 | [6] 0.14 | [10] -0.039 | [7] -0.01 | [8] 0.017 | [9] 0.05

TTC27 (UniProt Q6P3X3)
inactive: [1] -0.01 | [2] 0.005 | [3] -0.041 | [4] -0.033 | [5] 0.04 | [6] -0.129 | [10] 0.004 | [7] 0.048 | [8] -0.066 | [9] 0.04
